For at least one entry, the source does not settle the construct or the ends of the probe. Results from cells or extracts need not show a direct contact. For some assays here: Protein sequences can lack the tags named with them.
Columns and labels:
[1] = target: NF-kB p65 (TNF-alpha stimulated HeLa nuclear extract) (Homo sapiens) (UniProt Q04206); assay: binding assay; details: capture by anti-p65 on protein G beads, Luminex; TNF-stimulated extract; no numerical data; poly dI-dC; protein in an extract; label: 5' biotin
[2] = target: T1, NF-kB p50 (TNF-treated HeLa nuclear extract) (Homo sapiens) (UniProt P19838); assay: binding assay; details: internal amino-C6 between the two parts, coupled to beads; protection from EcoRI cleavage, Luminex; no numerical data; poly dI-dC; protein in an extract; label: 5' biotin
T1 sequence (looked up, limits assumed): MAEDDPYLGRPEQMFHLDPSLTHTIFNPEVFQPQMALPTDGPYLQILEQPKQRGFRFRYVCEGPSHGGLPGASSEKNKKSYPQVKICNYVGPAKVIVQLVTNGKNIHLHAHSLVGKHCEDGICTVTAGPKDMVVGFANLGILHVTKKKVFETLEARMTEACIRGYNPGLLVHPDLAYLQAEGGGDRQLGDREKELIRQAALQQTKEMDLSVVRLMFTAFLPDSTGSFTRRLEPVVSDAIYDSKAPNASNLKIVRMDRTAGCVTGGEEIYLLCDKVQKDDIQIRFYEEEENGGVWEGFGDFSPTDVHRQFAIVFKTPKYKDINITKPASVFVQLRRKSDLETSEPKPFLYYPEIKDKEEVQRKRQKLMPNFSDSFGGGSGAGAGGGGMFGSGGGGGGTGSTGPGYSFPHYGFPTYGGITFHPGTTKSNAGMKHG

Sequences of proteins named here, by UniProt entry; tags and fusion partners are left off.
UniProt Q04206, whole entry: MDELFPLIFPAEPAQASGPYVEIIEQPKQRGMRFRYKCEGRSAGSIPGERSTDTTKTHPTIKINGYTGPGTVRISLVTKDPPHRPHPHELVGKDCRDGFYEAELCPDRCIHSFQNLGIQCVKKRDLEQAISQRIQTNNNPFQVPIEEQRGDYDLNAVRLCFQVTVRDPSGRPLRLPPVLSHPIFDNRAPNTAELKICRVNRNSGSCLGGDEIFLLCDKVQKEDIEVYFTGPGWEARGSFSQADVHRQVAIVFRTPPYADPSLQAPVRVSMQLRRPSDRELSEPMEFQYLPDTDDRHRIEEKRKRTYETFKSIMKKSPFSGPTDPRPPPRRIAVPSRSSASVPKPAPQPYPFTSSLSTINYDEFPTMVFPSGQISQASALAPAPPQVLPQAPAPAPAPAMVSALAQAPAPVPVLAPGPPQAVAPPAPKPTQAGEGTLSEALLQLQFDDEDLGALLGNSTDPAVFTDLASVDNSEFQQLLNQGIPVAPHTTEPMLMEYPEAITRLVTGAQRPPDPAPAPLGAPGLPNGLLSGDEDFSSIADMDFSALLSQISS

| Sequence | binding result [1] | binding result [2] |
| --- | --- | --- |
| TATCCAAGGGGACTTTCCCCTGGCAGGGGAAAGTCCCCTTGGATA [biotin-HPNFKB65] | binds |  |
| TCCAAGGGGATTCCCCAGTGTACTGGGGAATCCCCTTGGA [KBREHP] |  | binds |
